Inconclusive means that the source gave no clear call. Such entries were picked first, then a sample of the others. Calls of active or inactive are those of the source. The rule behind the calls is not given here.
These compounds were tested against Histone acetyltransferase RTT109 (Candida albicans (strain SC5314 / ATCC MYA-2876)) (UniProt Q5AAJ8) (assay: Rtt109/Vps75 acetyltransferase inhibitor potency, dose response, biochemical, cherry-picked hits, plate reader (AID 588764;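 note: 0% = neutral control wells and -100% = no enzyme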)). Conditions: Rtt109/Vps75 HAT activity; at 19.5 µM (top of the series).

Protein sequences, listed by entry. Tags and fused reporters are not part of them.
UniProt Q5AAJ8, whole entry, looked up: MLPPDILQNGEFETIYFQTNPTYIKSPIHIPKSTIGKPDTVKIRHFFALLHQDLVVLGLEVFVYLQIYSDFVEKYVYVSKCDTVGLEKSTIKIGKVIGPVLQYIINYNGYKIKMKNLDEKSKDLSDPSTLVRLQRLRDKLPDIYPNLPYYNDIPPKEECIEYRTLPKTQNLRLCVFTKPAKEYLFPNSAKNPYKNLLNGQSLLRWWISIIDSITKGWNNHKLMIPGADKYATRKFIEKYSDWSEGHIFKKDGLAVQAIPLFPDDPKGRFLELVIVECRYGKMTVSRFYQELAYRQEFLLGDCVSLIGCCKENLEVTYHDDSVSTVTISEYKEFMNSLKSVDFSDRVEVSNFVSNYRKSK

| SMILES | activity change, negative = inhibition |
| --- | --- |
| O=C1NC(=O)C(Sc2ccccc2[N+](=O)[O-])C(=O)N1 | inconclusive: -14.8% |
| O=C(Nc1ccc(F)cc1)c1c(O)c2c(n(Cc3ccccc3)c1=O)CCCC2 | inactive: 10.4% |
| O=c1oc2ccccc2c(O)c1C(c1ccc([N+](=O)[O-])cc1)c1c(O)c2ccccc2oc1=O | inconclusive: -14.7% |
| C[C@H]1CC[C@H]2NCCN[C@H]2C1 | inactive: -10.3% |
